# Reference: US6495331B1, “Regulation of cytokine production in a hematopoietic cell” (National Jewish Center for Immunology and Respiratory …, priority 1996, dated 2002)
# At least one structure is not confirmed: it was looked up by name or label, or the drawing left a doubt.
# Columns and labels:
# [1] = system: JNK; assay: JNK activity (GST-c-Jun kinase assay) in OVA-stimulated OVA-IgE-sensitized MC/9 cells; assay type: cell-based, mouse; details: 3-1000 nM wortmannin, 15 min, then 10 μg/ml OVA 10 min
# [2] = system: ERK2; assay: ERK2 in vitro kinase assay (32P incorporation into myelin basic protein) in OVA-stimulated sensitized MC/9 cells; assay type: cell-based, mouse; details: 100-300 nM wortmannin
# [3] = system: p38 MAP kinase; assay: p38 MAP kinase immunoprecipitation kinase assay (ATF-2 substrate) in OVA-stimulated sensitized MC/9 cells; assay type: cell-based, mouse; details: 1-1000 nM wortmannin, 15 min, then 10 μg/ml OVA 5 min
# Protocol: MC/9 cells sensitized with OVA-IgE were incubated in the presence of PBS (O min) or 10 μg/ml OVA for 1, 5, 15, 30, or 60 min. To immunoprecipitate p38 kinase, 3×10^6 cells were lysed by vigorous mixing in 0.4 ml of extraction buffer (1% Triton X-100, 10 mM Tris-HCl (pH 7.4), 5 mM EDTA, 50 mM NaCl, 50 mM […], 0.1% bovine serum albumin (BSA), 20 μg/ml aprotinin, 1 mM PMSF, and 2 mM Na3VO4). The lysate was incubated with the rabbit anti-serum raised against the COOH-terminal peptide sequence of p38 (1:400 dilution) for 2 h at 4° C. Recombinant protein G sepharose 4 B was added to the lysate and incubated for an additional 1 h at 4° C. The immunoprecipitates were washed once with extraction buffer, twice with PAN buffer (10 mM piperazine-N, N′-bis (2-ethanesulfonic acid) (PIPES, pH 7.0), 100 mM NaCl, 20 μg/ml aprotinin). […] The kinase activity was quantified with a PhosphorImager (Molecular Dynamics, Sunnyvale, Calif.).
# MC/9 cells sensitized with OVA-IgE (3×10^6) were preincubated with either 1-1000 nM wortmannin or a control (0.01% DMSO) for 15 min and stimulated for 5 min by addition of 10 μg/ml OVA. […] The data are expressed as the percentage of p38 activity detected in the presence of 10 μg/ml OVA and 0.01% DMSO (*, p<0.05).
# [4] = system: JNK; assay: JNK activation in antigen-stimulated mouse bone marrow derived mast cells; assay type: cell-based; details: data not shown
# [5] = system: p38; assay: p38 activation in antigen-stimulated mouse bone marrow derived mast cells; assay type: cell-based; details: data not shown
structure (smiles),measurement,setting,value
COC[C@H]1OC(=O)c2coc3c2[C@@]1(C)C1=C(C3=O)[C@@H]2CCC(=O)[C@@]2(C)C[C@H]1OC(C)=O [wortmannin],effect on JNK activity,[1],inhibited JNK activity in a dose-dependent manner
same,effect on ERK2 activation induced by OVA,[2],did not significantly inhibit
same,effect on p38 MAPK activity,[3],inhibited p38 MAPK activity in a dose-dependent manner
same,effect on JNK activation,[4],inhibitory effects
same,effect on p38 activation,[5],inhibitory effects
